Source: patent publication US20190177380, “SYNTHETIC MBNL PROTEINS FOR TREATMENT OF REPEAT EXPANSION DISEASE” (University of Florida Research Foundation, Incorporated, published 2019)
Protein sequences can lack the tags named with them. For some of these results: For at least one entry, the source does not settle the construct or the ends of the probe. For some of these results: Whether high values mean tight binding is not given here for every scale.

Assays:
[1] = system: T1, MBNL1(3-4,3-4) (Homo sapiens); test: EMSA; details: no observable binding; 5 mM MgCl2; purified recombinant protein; label: 5'-32P; variant of CUG4
T1 sequence: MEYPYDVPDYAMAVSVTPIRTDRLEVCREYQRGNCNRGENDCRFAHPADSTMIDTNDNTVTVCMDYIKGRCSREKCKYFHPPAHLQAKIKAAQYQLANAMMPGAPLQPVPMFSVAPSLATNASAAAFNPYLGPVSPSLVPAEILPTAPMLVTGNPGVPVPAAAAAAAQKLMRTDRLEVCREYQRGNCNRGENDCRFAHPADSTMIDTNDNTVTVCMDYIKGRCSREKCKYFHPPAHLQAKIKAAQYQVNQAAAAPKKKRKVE

[2] = system: T2, MBNL1(1-2,1-2) (Homo sapiens); test: EMSA; details: no observable binding; 5 mM MgCl2; purified recombinant protein; label: 5'-32P; variant of CUG4
T2 sequence: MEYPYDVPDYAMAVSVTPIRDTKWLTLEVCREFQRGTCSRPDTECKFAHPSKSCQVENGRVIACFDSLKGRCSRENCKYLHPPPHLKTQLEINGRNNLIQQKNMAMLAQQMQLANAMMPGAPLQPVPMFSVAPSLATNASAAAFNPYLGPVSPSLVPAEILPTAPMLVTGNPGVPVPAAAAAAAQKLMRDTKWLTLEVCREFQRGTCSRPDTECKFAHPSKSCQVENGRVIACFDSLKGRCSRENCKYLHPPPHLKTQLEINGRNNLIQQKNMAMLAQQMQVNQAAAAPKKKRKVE

[3] = target: T3, WT-MBNL1 (truncated, aa 1-260 with HA tag and SV40 NLS) (Homo sapiens) (UniProt Q9NR56); test: EMSA; details: no observable binding; 5 mM MgCl2; purified recombinant protein; label: 5'-32P; variant of CUG4
T3 sequence: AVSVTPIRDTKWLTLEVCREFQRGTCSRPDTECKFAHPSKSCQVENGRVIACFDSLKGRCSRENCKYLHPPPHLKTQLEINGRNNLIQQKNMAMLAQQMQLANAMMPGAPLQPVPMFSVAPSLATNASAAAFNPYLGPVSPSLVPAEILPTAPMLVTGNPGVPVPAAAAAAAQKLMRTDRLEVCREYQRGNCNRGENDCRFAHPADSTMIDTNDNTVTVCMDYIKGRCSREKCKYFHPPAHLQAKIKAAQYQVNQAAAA

[4] = system: T2, MBNL1(1-2,1-2) (Homo sapiens); test: SELEX; details: purified recombinant protein; for selection result: RBNS top three 7mer
[5] = target: T3, WT-MBNL1 (truncated, aa 1-260 with HA tag and SV40 NLS) (Homo sapiens); test: SELEX; details: purified recombinant protein; for selection result: RBNS top three 7mer
[6] = system: T1, MBNL1(3-4,3-4) (Homo sapiens); test: SELEX; details: top 7mers; peak R at 1000 nM protein; purified recombinant protein

With GCAGCAGUUCGCAGCAG [CAG4] the Kd [1] was over 2.5 µM, the Kd [2] was over 2.5 µM and the Kd [3] was over 2.5 µM.
Work on GCUUGCU [RBNS 7mer GCUUGCU] yielded a binding signal ([4]; among top three 7mers, peak R at 500 nM protein, R of 10 stated for top kmers generally) of 10 RBNS R value and a binding signal ([5]; top 7mer, peak R at 250 nM protein, R of 7 stated for top kmers generally) of 7 RBNS R value.
In the case of CGCUUGC [RBNS 7mer CGCUUGC], the selection result [4] is reported as “selected” and the selection result [5] is reported as “selected”.
GCGCUGC [RBNS 7mer GCGCUGC] gave a binding signal [6] of 3 RBNS R value.
CUGCUGC [RBNS 7mer CUGCUGC] gave a binding signal [6] of 3 RBNS R value.
With UGCUUGC [RBNS 7mer UGCUUGC] the selection result [4] was “selected” and the selection result [5] was “selected”.
CGCUGCU [RBNS 7mer CGCUGCU] showed a binding signal [6] of 3 RBNS R value.
In the case of GCUGCGC [RBNS 7mer GCUGCGC], the binding signal [6] is reported as 3 RBNS R value.
